Results reported in PMC6327263, “Evaluation of Novel 3-Hydroxyflavone Analogues as HDAC Inhibitors against Colorectal Cancer” (Advances in Pharmacological Sciences, 2018).

Columns and labels:
VERO cells = assay: MTT cytotoxicity assay, Vero; format: cell-based, African green monkey; details: 48 h, mean ± SEM of three experiments
Method: (§1) Human colorectal carcinoma cell line (HCT116) and African green monkey kidney epithelial cells (VERO) were obtained from National Centre for Cell Science, Pune, MH, India. For their maintenance, the cells were grown in Dulbecco's Modified Eagle's Medium (DMEM) which was supplemented with 10% fetal bovine serum (FBS) and 1 × penicillin/streptomycin at 37°C in CO2 incubator (NU-5501E/G, NuAire Inc., Plymouth, MN, USA) in a humidified atmosphere of 5% CO2 and 95% air.
(§2) Cytotoxicity for the synthesized analogues was determined using MTT assay. In brief, HCT116 and VERO cells were harvested from the tissue culture flask and seeded in sterile 96 well plates at a density of 5000 cells per well. After overnight adherence, different concentrations of test compounds were added and incubated for 48 h. Next, 50 µl of the MTT reagent (HiMedia Laboratories, Mumbai, India) (2 mg/ml in the sterile phosphate buffer saline (PBS)) was added into each well and incubated for 3 h. The formazan crystals formed were solubilized using 100% dimethyl sulfoxide (DMSO), and the optical density was measured at 540 nm using the microplate reader (ELx800, BioTek Instruments Inc., Winooski, VT, USA).

HCT116 cells = assay: MTT cytotoxicity assay, HCT116; format: cell-based, human; details: 48 h, mean ± SEM of three experiments
Method: as §1, §2

[1] = system: HDAC enzyme in HCT116 cells; assay: Whole cell HDAC inhibition assay; format: cell-based, human; details: HCT116, 18 h treatment, mean ± SEM of three experiments
Method: Confluent HCT116 cells were harvested and seeded in 96 well sterile black well plates at a density of 2000 cells per well and incubated overnight. Furthermore, the cells were treated with different concentrations of test compounds for a period of 18 h followed by the addition of […] BOC-Ac-Lys-AMC substrate and incubated for 1 h. […] The reaction was then allowed to proceed for 15 min at 37°C. Finally, the fluorescence intensity was measured at 360 nm excitation and 460 nm emission using a fluorescence microplate reader (FLx800, BioTek Instruments Inc., Winooski, VT, USA).

Compound: O=C(CCCCCCC(=O)Nc1ccccc1)NO [SAHA, reference compound]
- IC50 (VERO cells): 4.6 ± 1.6 µM
- IC50 (HCT116 cells): 3.1 ± 0.35 µM
- IC50 [1]: 1.2 ± 0.1 µM
